Test results: PubChem BioAssay AID587 (National Center for Advancing Translational Sciences (NCATS), 2007)
Among all 59,000 compounds or so, about 35 (0.06%) were called active. Inconclusive results, whose numbers are uncertain, are shown with a selection of clear calls. Rule as the data show it: active = max dye-equivalent concentration above about 10 nM; inconclusive = between about 1.1 nM and that limit; inactive = weaker than that.

Assay: qHTS Assay for Spectroscopic Profiling in Texas Red Spectral Region
Details: Compound fluorescence, Texas Red channel, 547/618 nm; active compounds read high
Summary of the method: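 Compound titrations in 100 mM Tris pH 8.0 were incubated 15 min at room temperature and read at 547 nm excitation / 618 nm emission. Texas Red six-point standard curve on each plate converted fluorescence to dye-equivalent concentration.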

Compound	max dye-equivalent concentration
COc1ccccc1-c1n[nH]c(=S)o1	inconclusive: 1.5 nM
COc1ccc(-c2noc(CN(C)S(=O)(=O)c3ccc(C)cc3)n2)cc1	inconclusive: 1.1 nM
O=C(CN1CCN(C(c2ccccc2)c2ccccc2)CC1)NC(=O)NCc1ccco1	inconclusive: 1.1 nM
O=C(Nc1ccc2c(c1)OCCO2)c1ccc(CN2CCOCC2)cc1	inconclusive: 1.4 nM
CCOC(=O)c1cnc(SCc2nc(N)nc(Nc3ccccc3)n2)nc1N	inconclusive: 1.1 nM
O=C(NCCN1CCCCCC1)C1CC(=O)N(CCc2ccccc2)C1 (centres undefined)	inconclusive: 1.4 nM
COc1ccc(C(=O)n2nc(-c3ccc(C)cc3)nc2N)cc1OC	inactive
Nc1nc2c3ccccc3nc(Cc3ccccc3)n2n1	inconclusive: 1.1 nM
COc1ccc(C(C)=O)cc1COC(=O)c1ccc2c(c1)OCO2	inconclusive: 1.1 nM
CCOC(=O)c1c(C)[nH]c(C(=O)COC(=O)CCC(=O)c2ccc3c(c2)OCCO3)c1C	inconclusive: 1.2 nM
COc1ccc2cc(C(=O)CCC(=O)O)ccc2c1	inactive
C=C1C[C@@]23C[C@]1(O)CC[C@@H]2[C@]12C=C[C@@H](O)[C@](C)(C(=O)O1)[C@H]2[C@H]3C(=O)O	inactive
C=CCc1cc(C)ccc1OCC(O)CN1CCN(c2ccccc2)CC1 (centres undefined)	inconclusive: 2.2 nM
O=S(=O)(CCc1nc2ccccc2o1)c1ccc(Cl)cc1	inconclusive: 1.4 nM
CN(C)C(CNC(=O)CSc1nnc(-c2ccco2)o1)c1ccccc1 (centres undefined)	inconclusive: 1.2 nM
Nc1ncnc2c1ncn2[C@@H]1O[C@@H](CO)[C@H](O)[C@@H]1O	inactive
CC(=O)Nc1ccccc1N(C)S(=O)(=O)c1ccc(C)cc1	inconclusive: 1.2 nM
COc1ccccc1CNC(=O)C1CC(=O)N(C2CCCC2)C1 (centres undefined)	inconclusive: 1.5 nM
O=C(CN1CCCCC1)Nc1cc(Cl)ccc1Cl	inconclusive: 1.3 nM
O=C(c1ccc(Br)o1)N(c1ccc(Br)cc1)C1C=CS(=O)(=O)C1 (centres undefined)	inconclusive: 1.2 nM
O=C(CN1C(=O)C2CCCCN2C(=O)c2ccccc21)N1CCCc2ccccc21 (centres undefined)	inconclusive: 1.5 nM

Compound	max dye-equivalent concentration
CCOc1cccc(-c2nnc(SCC(=O)Nc3ccc(OC)c(OC)c3)n2N)c1	inconclusive: 1.6 nM
CC(Sc1nc2ccccc2c(=O)n1Cc1ccco1)C(=O)c1ccccc1 (centres undefined)	inconclusive: 1.6 nM
CCN(CC)CCCNC(=O)C1c2ccccc2C(=O)N1Cc1ccc(C)cc1 (centres undefined)	inconclusive: 1.7 nM
CS(=O)(=O)Nc1ccc(Nc2c3ccccc3nc3ccccc23)cc1	inactive
Cn1c(=NC(=O)C2CCN(S(=O)(=O)c3cccs3)CC2)sc2ccccc21	inconclusive: 1.3 nM
CCC1(C)Cc2c(c(=O)n(-c3ccccc3)c3ncnc(N)c23)CO1 (centres undefined)	inconclusive: 1.5 nM
O=C(COc1cccc2ccccc12)N1CCN(c2ccccn2)CC1	inconclusive: 1.6 nM
COc1ccc(NCc2cc3cc(OC)ccc3[nH]c2=O)cc1	inconclusive: 1.2 nM
Cc1c(=O)n(OCc2ccccc2F)c2ccccc2[n+]1[O-]	inconclusive: 1.5 nM
COc1cc2nc(-c3cccs3)oc(=O)c2cc1OC	inconclusive: 1.2 nM
CCn1c(COc2cccc(OC)c2)nnc1SCC(=O)Nc1cc(OC)ccc1OC	inconclusive: 1.3 nM
Cc1ccccc1-c1n[nH]c(=S)o1	inconclusive: 1.3 nM
C[C@@H](C(=O)O)c1ccc(C[C@@H]2CCCC2=O)cc1	inactive
CC(=O)N1CCC2(CC1)C(C#N)=C(N)Oc1n[nH]c(CSc3ccc(C)cc3)c12	inconclusive: 1.1 nM
CCOC(=O)N1CCN(C(=O)c2cc3c(ccc4ccccc43)oc2=O)CC1	inconclusive: 1.4 nM
CCOc1ccccc1N1CC(C(=O)Nc2nccs2)CC1=O (centres undefined)	inconclusive: 1.2 nM
CC[C@H](C)C(=O)O[C@@H]1C[C@H](C)C=C2C=C[C@H](C)[C@@H](CC[C@H]3C[C@@H](O)CC(=O)O3)[C@H]21	inactive
COc1ccc(-n2c(C)nc3c(cnn3-c3ccccc3)c2=O)cc1	inconclusive: 1.5 nM
O=C(Nc1nnc(CC(=O)N2CCOCC2)s1)C1COc2ccccc2O1 (centres undefined)	inconclusive: 1.1 nM
O=C(N1CCOCC1)N1CCCC(c2nc(-c3cccs3)no2)C1 (centres undefined)	inconclusive: 1.7 nM
COc1ccccc1CNC(=O)Cn1cnc2ccccc2c1=O	inconclusive: 3.3 nM

Compound	max dye-equivalent concentration
CN1CCN(C(=O)N2CCNC2=O)CC1	inconclusive: 1.9 nM
Cc1nc2cc(-c3ccccc3)ccc2o1	inconclusive: 1.1 nM
Cc1noc(C)c1CSc1nnc2scc(-c3ccc(Cl)cc3)n12	inconclusive: 3 nM
CCOC(=O)c1ccc2c(c1)nc(SC/C(O)=C(\C#N)c1nc3ccccc3[nH]1)n2CC	inconclusive: 1.1 nM
CCOC(=O)c1c(C)oc(NC(=O)COc2ccc(Cl)cc2C)c1C#N	inconclusive: 1.5 nM
Cn1nnc2cc(NC(=O)N3CC4(C)CC3CC(C)(C)C4)ccc21 (centres undefined)	inconclusive: 1.7 nM
COc1ccccc1Nc1ncnc2c1oc1ccccc12	inconclusive: 1.3 nM
COCCCn1c(SCC(=O)OC2CCCCC2)nnc1-c1ccco1	inconclusive: 1.8 nM
CCOc1ccc(OCC)c(NC(=O)c2ccc(CNc3c(N4CCOCC4)c(=O)c3=O)cc2)c1	inconclusive: 2.1 nM
CCOC(=O)C1=C(c2ccccc2)NC(SCC(=O)NC2CCCCC2)=C(C#N)C1c1ccco1 (centres undefined)	inconclusive: 1.4 nM
CCNc1ncc2nc(-c3cccs3)c(=O)n(-c3ccccc3)c2n1	inactive
NS(=O)(=O)c1ccc(NC(=O)CSc2nnc(-c3cnccn3)n2-c2ccccc2)cc1	inconclusive: 1.1 nM
CN1C2C=C3C(C#N)=C(N)C(C#N)(C#N)[C@@H](c4ccc(Cl)cc4)[C@@H]3C1CC2 (some centres undefined)	inconclusive: 1.2 nM
O=C(c1cccc(C(=O)N2CCN(c3ncccn3)CC2)c1)N1CCN(c2ncccn2)CC1	inconclusive: 1.2 nM
CC(C)c1nnc(NC(=O)CCC(=O)NCc2ccc3c(c2)OCO3)s1	inactive
CSCCC(NS(=O)(=O)c1ccc(Cl)cc1)C(=O)OCC(=O)N1CCOCC1 (centres undefined)	inconclusive: 2.5 nM
CC(=O)OCn1nnc2ccccc2c1=O	inconclusive: 1.4 nM
O=C1CN(C(=O)COC(=O)CCC(=O)c2ccc3c(c2)OCCO3)c2ccccc2N1	inconclusive: 1.5 nM
CCC(C)C(NC(=O)C1CCC(C)CC1)C(=O)NCc1cccnc1 (centres undefined)	inconclusive: 1.6 nM
O=C(c1ccccc1)N1CCN(Cc2c[nH]c3ccccc23)CC1	inconclusive: 1.1 nM
C1CN(c2nc3nonc3nc2N2CCOCC2)CCO1	inconclusive: 1.4 nM

Ordered by SMILES length (ascending): six of the compounds above.
Compound	max dye-equivalent concentration
Cc1ccccc1-c1n[nH]c(=S)o1	inconclusive: 1.3 nM
CCOc1ccccc1N1CC(C(=O)Nc2nccs2)CC1=O (centres undefined)	inconclusive: 1.2 nM
O=C(Nc1nnc(CC(=O)N2CCOCC2)s1)C1COc2ccccc2O1 (centres undefined)	inconclusive: 1.1 nM
CCC1(C)Cc2c(c(=O)n(-c3ccccc3)c3ncnc(N)c23)CO1 (centres undefined)	inconclusive: 1.5 nM
NS(=O)(=O)c1ccc(NC(=O)CSc2nnc(-c3cnccn3)n2-c2ccccc2)cc1	inconclusive: 1.1 nM
CCOc1ccc(OCC)c(NC(=O)c2ccc(CNc3c(N4CCOCC4)c(=O)c3=O)cc2)c1	inconclusive: 2.1 nM

Further entries:

Compound	max dye-equivalent concentration
CCOc1cc(C2C(C(=O)OCC(C)C)=C(C)N=C3SCCC(=O)N32)ccc1OC(C)=O (centres undefined)	inconclusive: 1.1 nM
CCOc1ccccc1NC(=O)N1CCCC1C(=O)Nc1ccc(NC(C)=O)cc1 (centres undefined)	inconclusive: 1.8 nM
CCOc1ccc(C2C(C#N)=C(N)SC(N)=C2C#N)cc1OC	inactive
CCOC(=O)N1CCN(c2ccc(Cl)c(Cl)c2)CC1	inactive
CCCN1C[C@@H](CSC)C[C@H]2c3cccc4[nH]cc(c34)C[C@@H]21	inconclusive: 1.3 nM
Cc1cccc2cc(CN(Cc3ccco3)C(c3nnnn3CCc3ccccc3)C(C)C)c(=O)[nH]c12 (centres undefined)	inconclusive: 2.7 nM
Clc1ccc(/C=C\c2nc(Cl)c(-c3ccc(Cl)cc3)c(Cl)n2)cc1	inactive
COc1cc(CN2CCC(C(=O)NC3CCCC3)CC2)cc(OC)c1O	inconclusive: 1.1 nM
CN1[C@@H]2CC(OC(=O)[C@@H](CO)c3ccccc3)C[C@H]1[C@H]1O[C@H]12 (some centres undefined)	inactive
Cc1ccc(C)n1NC(=O)c1ccc(Cl)cc1Cl	inconclusive: 1.8 nM
O=C(c1cccc(F)c1)N1CCC2(CCCN(c3cccc(-c4ccccc4)c3)C2)CC1	inactive
Cc1cccc2nc(CSCc3ccco3)cn12	inconclusive: 2.8 nM
Cc1cc2cc(C(c3nnnn3Cc3ccco3)N3CCc4ccccc4C3)c(=O)[nH]c2cc1C (centres undefined)	inconclusive: 1.4 nM
C/C(N)=C(/C#N)C(=O)COC(=O)C1Cc2ccccc2CN1S(C)(=O)=O (centres undefined)	inconclusive: 1.6 nM
Cn1c(C(O)c2ccc(Cl)cc2)nc(Cl)c1Cl (centres undefined)	inconclusive: 1.4 nM
CCn1c(=O)cc(SCC(=O)N2CCN(C(=O)c3ccco3)CC2)c2ccccc21	inconclusive: 1.2 nM
CCOC(=O)C1CCN(c2ncnc3c2[nH]c2cccc(OC)c23)CC1	inconclusive: 1.1 nM
CCOC(=O)c1ccc(COC(=O)CCc2nc3ccccc3[nH]c2=O)o1	inconclusive: 1.8 nM
CN(CCc1ccccn1)C(=O)CN(C)S(=O)(=O)c1ccc2c(c1)c(=O)n(C)c(=O)n2C	inconclusive: 1.5 nM
Cc1ccc(S(=O)(=O)O[C@H]2C[C@@H](C(C)(C)C)CC[C@@H]2c2ccccc2)cc1	inconclusive: 1.4 nM
CN(C)S(=O)(=O)c1ccc(C(=O)NCCOc2ccccc2)cc1	inconclusive: 1.2 nM
